The supplement of paper PMC12889115
This is one part of the list. Values are raw readings; no control value is given beside them.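 In the initial screen, polymyxin B was used at a concentration that permeabilizes Salmonella's outer membrane but not its inner membrane. Maximum growth was set by DMSO wells with or without polymyxin B. Since plates varied, data were ranked per plate, and compounds giving the lowest OD600 advanced as hits.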

Tested on: Salmonella enterica serovar Typhimurium SL1344
Assay: bacterial growth OD600 after 18 h with compound and polymyxin B; higher = more bacterial growth (less inhibition)
Conditions: 50 µM, Mueller-Hinton broth

SMILES	bacterial growth OD600 (polymyxin B 1 µg/mL)	bacterial growth OD600 (polymyxin B 0.75 µg/mL)
CC(C)CC(=O)Nc1ccnn1C1CCN(Cc2ccc3c(c2)CCO3)CC1	0.808	
CN1CCCC2(CCN(C(=O)c3cc4c(s3)CCCCC4)C2)C1=O (stereo not given)	0.889	
Cc1ccc(N2CCN(C(=O)CC3C(=O)NCCN3Cc3cccs3)CC2)c(C)c1 (stereo not given)	0.779	
COc1ccccc1Oc1ncccc1CNC(=O)C1(C)CC1		0.765
CC1=C(C(=O)NCc2nc(-c3ccccc3NC(=O)c3ccccc3)oc2C)OCCO1		0.827
COc1ccc2c(C)nc(N3CCCC(C(=O)NCc4cccc(C)c4)C3)nc2c1 (stereo not given)		0.008
Cc1nonc1CN(C)C(=O)CC(c1cccc(O)c1)c1ccccc1Cl (stereo not given)	0.593	
O=C(c1ccc(N2CCC(NCC3(c4ccccc4)CCCC3)CC2)cc1)N1CCCC(CO)C1 (stereo not given)		0.844
CCOC(=O)N1CCC(NC(=O)C2CC23CCN(C(=O)c2cc4ccccc4n2C)CC3)CC1 (stereo not given)		0.857
COc1ncc(CN2CCC(C3CCN(CC(C)(C)C)C3)CC2)cn1 (stereo not given)		0.79
CCOc1cccc(CN2CCc3nnc(C(CC(C)C)NC(C)=O)n3CC2)c1O (stereo not given)		0.808
O=C(CCN1CCCCO1)NCc1cccnc1N1CCCCCCC1	0.955	
COC(=O)c1cc(CNC(=O)c2ccc(C)c(N3CCNC3=O)c2)cc(NC(=O)C2CCCCC2)c1		0.883
CN(C)CC(C)(O)c1ccc2c(c1)CN(Cc1cccc(C(F)(F)F)c1)CCO2 (stereo not given)		0.82
CC1(C(=O)N2CCC3(CCCN(Cc4cccc(F)c4F)C3=O)C2)CC1 (stereo not given)	0.772	
Cn1cc(CCC(=O)NC2CC(=O)N(Cc3cccc4ccccc34)C2)cn1 (stereo not given)	1.01	
Cc1ccc(-n2cc([C@@H]3C[C@H]4CN(C5CCCC5)C(=O)[C@]45CCCN35)cn2)cc1	1.08	
CN(Cc1csc(-c2cccs2)n1)C(=O)c1cn(C2CC2)cc(C(=O)NC2CCCCC2)c1=O		0.699
CCS(=O)(=O)N1CCC2(CCCN(Cc3ccc(F)c(F)c3)C2=O)C1 (stereo not given)	0.952	
CCS(=O)(=O)c1ncc(CN(C)Cc2nc3c(s2)CCCC3)n1CCOC	1.14	
CCCc1ccc2oc(C(=O)N3CCN(CC(=O)NC(C)C)CC3)c(C)c2c1	0.752	
CSc1ccc(-c2nc(CN3CCN(c4ccc(Cl)cn4)CC3)c(C)o2)cc1	0.538	
CC(C)N1CCN(Cc2cn(Cc3ccccc3)nc2-c2ccc3c(c2)OCO3)CC1		0.9
O=C(NCCN1CCOCC1)c1csc2nc(-c3ccccc3)cn12	1.06	
Cc1cccc(CN2CCCC(C(=O)Nc3ccccc3Oc3cccnc3)C2)c1 (stereo not given)	0.663	
COc1ccc(CN2C[C@@H]3C[C@@H](c4ccccc4)N4CCC[C@@]34C2=O)cc1		0.807
COc1cc(C)ccc1OCc1nc(C(=O)N(C)Cc2ccc(C)cc2)co1		0.292
CCC(COC)NC(=O)c1cc(Cn2c(C)nc3ccccc32)on1 (stereo not given)	1.14	
Cc1ccc(CNc2nc(CN3CCSCC3)nc3ccccc23)cc1		0.97
CN(CC1CCCN(CCc2cccc(C(F)(F)F)c2)C1)C(=O)Cc1cccnc1 (stereo not given)	0.803	

Filtered by structure, those above with a CF3 group.
SMILES	bacterial growth OD600 (polymyxin B 1 µg/mL)	bacterial growth OD600 (polymyxin B 0.75 µg/mL)
CN(C)CC(C)(O)c1ccc2c(c1)CN(Cc1cccc(C(F)(F)F)c1)CCO2 (stereo not given)		0.82
CN(CC1CCCN(CCc2cccc(C(F)(F)F)c2)C1)C(=O)Cc1cccnc1 (stereo not given)	0.803	
